Results taken from paper PMC3697071 (Natural product communications, 2010).
Values after ≈ are worked out from the molar mass of the structure shown.

Legend:
[1] = system: Aspergillus fumigatus ATCC 90906; experiment: Antimicrobial assay; format: cell-based; conditions: ATCC90906, read-out: A. fumigatus MIC
[2] = system: Candida albicans ATCC 90028; experiment: Antimicrobial assay; format: cell-based; conditions: ATCC90028, read-out: C. albicans MIC

- MIC [1]: 2.5 µg/mL (≈ 2.71 µM)
- MIC [2]: 1.25 µg/mL (≈ 1.35 µM)
Structure (SMILES): C[C@@H]1[C@H](O)[C@@H](C)/C=C/C=C/C=C/C=C/C=C/C=C/C=C/[C@H](O[C@@H]2O[C@H](C)[C@@H](O)[C@H](N)[C@@H]2O)C[C@@H]2O[C@](O)(C[C@@H](O)C[C@@H](O)[C@H](O)CC[C@@H](O)C[C@@H](O)CC(=O)O[C@H]1C)C[C@H](O)[C@H]2C(=O)O [Amphotericin B, reference compound]
